Measured values published in patent publication US5877202A, “Indole derivatives useful to treat estrogen-related neoplasms and disorders” (priority 1996, dated 1999).
At least one read-out could not be matched to a standard name with certainty.

System: estrogen receptor (nuclear and cytosol ER) in MCF-7 cells
Test: Depletion of estrogen receptor from MCF-7 human breast tumor cells (enzyme immunoassay)
Type: cell-based
Conditions: 24 hours

Row | SMILES | Nuclear ER % Control (2 μM) [% Control] | Nuclear ER % Control (5 μM) [% Control] | Nuclear ER % Control (10 μM) [% Control] | Cytosol ER % Control (20 μM) [% Control] | Nuclear ER % Control (20 μM) [% Control] | Nuclear ER % Control (30 μM) [% Control]
1 | CCCCN(C)C(=O)CCCCCCCNC(=O)Cc1c(C)n(C(=O)c2ccc(Cl)cc2)c2ccc(O)cc12 [MDL 101,906, 8-[[5-Hydroxy-1-(4-chlorobenzoyl)-2-methyl-1H-indol-3-yl]-acetylamino]-octanoic acid methyl-butyl-amide] | 108 | 94 | 81 | 77 | 64 | 
2 | CCCCN(C)C(=O)CCCCCCCNC(=O)Cc1c(-c2ccc(O)cc2)n(Cc2ccccc2)c2ccc(O)cc12 [MDL 103,324, 8-[[5-Hydroxy-1-benzyl-2-[(4-hydroxy)-phenyl]-1H-indol-3-yl]-acetylamino]-octanoic acid methyl-butyl-amide] | 96 | 106 | 82 | 36 | 56 | 37
